Laboratory results published in publication PMC10401909.
No constants are given. Whether binding was seen depends on the method and setting. In cells and extracts the contact can be indirect. Some binding calls cover weakened binding; strength is not graded here.

Amino acid sequences for entries named in this document (tags omitted).
UniProt O88597: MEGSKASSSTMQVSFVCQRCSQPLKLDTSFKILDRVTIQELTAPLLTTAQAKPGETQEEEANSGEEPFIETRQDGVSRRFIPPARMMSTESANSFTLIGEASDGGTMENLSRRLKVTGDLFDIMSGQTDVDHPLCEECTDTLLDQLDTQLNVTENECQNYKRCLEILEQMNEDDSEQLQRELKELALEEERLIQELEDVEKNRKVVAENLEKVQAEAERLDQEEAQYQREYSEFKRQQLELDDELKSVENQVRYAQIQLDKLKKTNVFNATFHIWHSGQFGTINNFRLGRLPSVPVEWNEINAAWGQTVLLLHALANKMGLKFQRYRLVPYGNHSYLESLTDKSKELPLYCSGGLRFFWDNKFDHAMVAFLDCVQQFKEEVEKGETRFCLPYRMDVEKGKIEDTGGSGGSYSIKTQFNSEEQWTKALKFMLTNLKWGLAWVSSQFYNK
UniProt Q6PF93: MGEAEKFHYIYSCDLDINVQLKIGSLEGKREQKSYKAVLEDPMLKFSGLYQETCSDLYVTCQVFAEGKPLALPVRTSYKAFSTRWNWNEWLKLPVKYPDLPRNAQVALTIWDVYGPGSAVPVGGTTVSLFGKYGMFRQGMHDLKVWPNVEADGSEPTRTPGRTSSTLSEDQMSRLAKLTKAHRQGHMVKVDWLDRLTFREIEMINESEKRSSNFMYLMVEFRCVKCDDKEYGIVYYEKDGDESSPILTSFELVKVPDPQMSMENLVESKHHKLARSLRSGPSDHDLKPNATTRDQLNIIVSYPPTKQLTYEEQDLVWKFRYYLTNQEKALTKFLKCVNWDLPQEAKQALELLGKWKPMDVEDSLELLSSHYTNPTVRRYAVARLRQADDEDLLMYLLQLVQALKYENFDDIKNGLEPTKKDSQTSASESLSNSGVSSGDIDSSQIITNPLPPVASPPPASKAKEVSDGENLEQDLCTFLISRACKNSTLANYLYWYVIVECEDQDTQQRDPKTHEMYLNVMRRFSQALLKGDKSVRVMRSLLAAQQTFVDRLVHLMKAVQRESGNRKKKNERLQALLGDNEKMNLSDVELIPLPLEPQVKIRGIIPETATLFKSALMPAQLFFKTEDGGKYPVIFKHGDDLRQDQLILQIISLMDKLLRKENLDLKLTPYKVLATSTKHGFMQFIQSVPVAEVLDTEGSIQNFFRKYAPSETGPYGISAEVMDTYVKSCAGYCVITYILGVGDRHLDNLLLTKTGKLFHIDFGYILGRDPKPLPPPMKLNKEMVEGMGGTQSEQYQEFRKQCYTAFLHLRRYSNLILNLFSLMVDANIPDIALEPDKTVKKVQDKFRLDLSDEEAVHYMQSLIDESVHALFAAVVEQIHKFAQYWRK

Biological target: Beclin-1 (mouse (endogenous in CT-26)) (UniProt O88597)
Assay: co-IP; cells lysed in RIPA buffer at 4°C, pre-cleared with protein sepharose; specific antibodies or irrelevant immunoglobulin with protein sepharose beads; washed three times with RIPA buffer; SDS-PAGE and western blot; CT-26 and HCT-116 cells treated with naphplatin or cisplatin (10 μM), with or without ethyl pyruvate (EP, 10 mM, 2 h)

## PI3K-III (from UniProt Q6PF93 1-887)
  binding: binds
